Assay [1] addresses GST-Nrb331-453 (neurabin aa331-453) (UniProt O35867). The assay can be described thus: pull-down; GST-Nrb331-453 as bait, [35S]-labeled in vitro translated A1R202-326 as probe; autoradiography; BSA control or competitor peptides at 0.1 ug/uL; only the target purified.
Assay [2] has the same target. The assay can be described thus: pull-down; competition pull-down: synthetic A1R peptide (0.1 ug/uL final) added to GST-Nrb331-453 with the [35S]A1R202-326 probe; read-out is the amount of probe pulled down; both purified.
In assay [3] the target is neurabin (full length), expressed in cells (UniProt O35867). As to the kind of experiment: co-IP; intact cells expressing HA-A1R and neurabin with GFP or GFP-CT, treated with vehicle or R-PIA; neurabin detected in the IP complex with HA-A1R by Western blot. A general note: A western blot detects proteins with antibodies after separation by electrophoresis.

The chains behind the UniProt entries cited, without tags or fusion partners. Where a name states a change or a piece, a line headed by the entry shows the natural chain unless it says otherwise. Residues count along the entry.
UniProt O35867: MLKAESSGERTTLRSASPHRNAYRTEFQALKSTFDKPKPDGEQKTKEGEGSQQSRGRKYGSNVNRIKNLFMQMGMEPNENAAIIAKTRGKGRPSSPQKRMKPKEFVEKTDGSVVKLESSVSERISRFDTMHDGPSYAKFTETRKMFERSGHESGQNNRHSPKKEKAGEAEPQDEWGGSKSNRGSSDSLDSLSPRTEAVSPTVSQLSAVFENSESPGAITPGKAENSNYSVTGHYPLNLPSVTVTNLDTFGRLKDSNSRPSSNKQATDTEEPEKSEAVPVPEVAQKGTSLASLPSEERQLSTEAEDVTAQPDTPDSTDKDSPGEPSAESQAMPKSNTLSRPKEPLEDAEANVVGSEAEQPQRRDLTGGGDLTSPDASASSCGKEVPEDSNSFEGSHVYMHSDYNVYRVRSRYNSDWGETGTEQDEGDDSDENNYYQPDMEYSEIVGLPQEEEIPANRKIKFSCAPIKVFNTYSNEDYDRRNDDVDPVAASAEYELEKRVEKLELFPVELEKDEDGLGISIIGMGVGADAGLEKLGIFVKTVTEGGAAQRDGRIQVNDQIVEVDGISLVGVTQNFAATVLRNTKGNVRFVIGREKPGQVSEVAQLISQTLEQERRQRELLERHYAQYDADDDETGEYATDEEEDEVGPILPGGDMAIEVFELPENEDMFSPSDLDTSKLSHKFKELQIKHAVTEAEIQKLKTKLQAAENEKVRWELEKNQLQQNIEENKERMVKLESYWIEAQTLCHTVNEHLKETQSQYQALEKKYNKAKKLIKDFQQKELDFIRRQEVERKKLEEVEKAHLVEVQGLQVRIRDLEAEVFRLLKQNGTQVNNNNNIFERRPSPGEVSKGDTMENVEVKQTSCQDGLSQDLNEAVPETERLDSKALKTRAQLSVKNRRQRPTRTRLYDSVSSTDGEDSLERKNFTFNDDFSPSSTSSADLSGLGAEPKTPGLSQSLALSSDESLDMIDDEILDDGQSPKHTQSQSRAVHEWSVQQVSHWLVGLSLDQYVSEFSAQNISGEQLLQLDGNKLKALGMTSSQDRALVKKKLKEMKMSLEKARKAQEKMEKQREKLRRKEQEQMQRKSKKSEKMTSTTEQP
GST-Nrb331-453 (neurabin aa331-453): residues 331-453 of O35867

Results are given in words; binding and its absence hold for the method and conditions named. For part of these data: Binding seen in cells or lysates may run through a third protein. Some entries that bind do so weakly or less than the wild type. For part of these data: Sequences can lack the tags named with a protein.

B1: [35S]-labeled A1R202-326 (adenosine A1 receptor aa202-326) (domain or fragment, UniProt P30542 202-326)
chain: EVFYLIRKQLNKKVSASSGDPQKYYGKELKIAKSLALILFLFALSWLPLHILNCITLFCPSCHKPSILTYIAIFLTHGNSAMNPIVYAFRIQKFRVTFLKIWNDHFRCQPAPPIDEDLPEERPDD
modifications: [35S]methionine label
Regarding B1, the binding result in assay [1] is “binds”.

Regarding QKFRVTFLKIWNDHFRCQPAPPIDEDLPEERPDD (peptide, UniProt P30542 293-326) [A1R-CT peptide (aa293-326), without TAT fusion], the binding entry in assay [2] was “binds”. With QKFRVTFLKIWNDHFRCQPAPPIDEDLPEERPDD (domain or fragment, UniProt P30542 293-326) [GFP-fused A1R-CT (GFP-A1R293-326)], the binding entry in assay [3] is listed as “binds”.

The values above are taken from PMC9220929.
